Test results: patent US20220177577A1
These are yes or no findings as the source states them, for the method shown. Some results given as binding are weak or reduced against the parent protein; the word gives no strength.

The chains behind the UniProt entries cited, without tags or fusion partners. Where a name states a change or a piece, a line headed by the entry shows the natural chain unless it says otherwise. A line that says so, or that is headed by a name, gives the form on record, which may keep a tag or linker.
UniProt P10721: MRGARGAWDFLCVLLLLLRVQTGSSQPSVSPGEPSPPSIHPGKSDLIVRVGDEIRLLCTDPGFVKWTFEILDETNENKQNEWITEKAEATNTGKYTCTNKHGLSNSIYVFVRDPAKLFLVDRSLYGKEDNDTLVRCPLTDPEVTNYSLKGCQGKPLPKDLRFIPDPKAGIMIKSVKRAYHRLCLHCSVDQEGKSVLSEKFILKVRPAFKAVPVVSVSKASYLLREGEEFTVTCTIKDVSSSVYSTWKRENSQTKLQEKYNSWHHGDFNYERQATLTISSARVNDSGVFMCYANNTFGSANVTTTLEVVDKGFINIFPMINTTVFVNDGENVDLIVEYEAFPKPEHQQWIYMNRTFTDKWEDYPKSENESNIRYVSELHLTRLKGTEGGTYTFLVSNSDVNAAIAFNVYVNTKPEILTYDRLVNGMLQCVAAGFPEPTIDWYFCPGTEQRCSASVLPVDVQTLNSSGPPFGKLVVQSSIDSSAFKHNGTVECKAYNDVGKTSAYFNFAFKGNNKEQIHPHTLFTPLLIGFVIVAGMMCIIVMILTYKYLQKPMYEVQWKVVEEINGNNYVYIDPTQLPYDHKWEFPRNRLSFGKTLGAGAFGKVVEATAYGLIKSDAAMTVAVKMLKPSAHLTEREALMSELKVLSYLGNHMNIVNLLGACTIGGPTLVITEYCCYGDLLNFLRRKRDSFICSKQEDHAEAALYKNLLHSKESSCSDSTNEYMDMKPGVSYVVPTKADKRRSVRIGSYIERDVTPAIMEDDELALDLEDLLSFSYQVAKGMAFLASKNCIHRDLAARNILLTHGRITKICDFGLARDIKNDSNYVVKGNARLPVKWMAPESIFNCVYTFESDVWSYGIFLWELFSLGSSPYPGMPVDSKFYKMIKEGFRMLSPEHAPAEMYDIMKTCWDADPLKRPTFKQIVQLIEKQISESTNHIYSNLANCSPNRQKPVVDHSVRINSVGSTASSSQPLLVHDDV
rhesus CD117 (F6V858, form named): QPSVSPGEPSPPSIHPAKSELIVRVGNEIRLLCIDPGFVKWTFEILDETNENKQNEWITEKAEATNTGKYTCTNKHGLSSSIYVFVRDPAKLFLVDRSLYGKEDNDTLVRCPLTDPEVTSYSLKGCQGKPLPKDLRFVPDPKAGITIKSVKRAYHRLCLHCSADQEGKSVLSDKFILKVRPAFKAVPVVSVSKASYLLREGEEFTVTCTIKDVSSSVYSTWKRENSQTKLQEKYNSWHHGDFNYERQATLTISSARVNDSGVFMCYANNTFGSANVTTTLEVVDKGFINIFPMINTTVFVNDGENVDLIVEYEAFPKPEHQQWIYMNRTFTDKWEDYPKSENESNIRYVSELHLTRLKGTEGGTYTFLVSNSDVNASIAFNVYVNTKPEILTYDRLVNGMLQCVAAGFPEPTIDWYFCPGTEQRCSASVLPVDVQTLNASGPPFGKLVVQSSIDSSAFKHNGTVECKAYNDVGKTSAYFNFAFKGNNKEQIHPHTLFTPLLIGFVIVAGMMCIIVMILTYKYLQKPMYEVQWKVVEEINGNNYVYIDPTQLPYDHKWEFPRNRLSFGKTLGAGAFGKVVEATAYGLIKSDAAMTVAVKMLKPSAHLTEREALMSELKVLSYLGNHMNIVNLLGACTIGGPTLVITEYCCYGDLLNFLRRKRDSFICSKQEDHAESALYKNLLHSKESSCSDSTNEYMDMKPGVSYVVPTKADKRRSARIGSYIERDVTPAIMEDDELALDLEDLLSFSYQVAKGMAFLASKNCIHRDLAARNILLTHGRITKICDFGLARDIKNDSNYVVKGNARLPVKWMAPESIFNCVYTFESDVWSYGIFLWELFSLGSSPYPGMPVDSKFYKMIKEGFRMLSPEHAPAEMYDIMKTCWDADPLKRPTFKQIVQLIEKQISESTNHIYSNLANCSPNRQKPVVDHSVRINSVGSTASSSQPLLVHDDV

What was measured:
Experiment in all cases: antibodies from a yeast library screen; binding assay not described
[1] = target: human CD117 isoform 1 (human) (UniProt P10721)
[2] = target: human CD117 isoform 2 (human) (UniProt P10721)
[3] = target: rhesus CD117 (rhesus) (UniProt F6V858)

binding [1]	binding [2]	binding [3]	Binder
binds	binds	binds	Antibody 57 (antibody, V domains shown) VH: QVQLVQSGAEVKKPGSSVKVSCKASGGTFSLYAISWVRQAPGQGLEWMGGIIPHFGLANYAQKFQGRVTITADESTSTAYMELSSLRSEDTAVYYCARGGLDTDEFDLWGRGTLVTVSS VL: DIQMTQSPSSLSASVGDRVTITCRASQSINSYLNWYQQKPGKAPKLLIYAASSLQSGVPSRFSGSGSGTDFTLTISSLQPEDFATYYCQQGVSDITFGGGTKVEIKR
binds	binds	binds	Antibody 55 (antibody, V domains shown) VH: QVQLVQSGAEVKKPGSSVKVSCKASGGTFRIYAISWVRQAPGQGLEWMGGIIPDFGVANYAQKFQGRVTITADESTSTAYMELSSLRSEDTAVYYCARGGLDTDEFDLWGRGTLVTVSS VL: DIQMTQSPSSLSASVGDRVTITCRASQSINSYLNWYQQKPGKAPKLLIYAASSLQSGVPSRFSGSGSGTDFTLTISSLQPEDFATYYCQQGVSDITFGGGTKVEIKR
binds	binds	binds	Antibody 61 (antibody, V domains shown) VH: EVQLLESGGGLVQPGGSLRLSCAASGFTFSSYVMIWVRQAPGKGLEWVSSISGDSVTTYYADSVKGRFTISRDNSKNTLYLQMNSLRAEDTAVYYCAKGPPTYHTNYYYMDVWGKGTTVTVSS VL: DIQMTQSPSSVSASVGDRVTITCRASQGISSWLAWYQQKPGKAPKLLIYAASSLQSGVPSRFSGSGSGTDFTLTISSLQPEDFATYYCQQTNSFPYTFGGGTKVEIKR
